Results on 3 molecules are retold here after doi:10.1101/2024.03.28.586926.

Amino acid sequences for entries named in this document (tags omitted).
UniProt Q13309: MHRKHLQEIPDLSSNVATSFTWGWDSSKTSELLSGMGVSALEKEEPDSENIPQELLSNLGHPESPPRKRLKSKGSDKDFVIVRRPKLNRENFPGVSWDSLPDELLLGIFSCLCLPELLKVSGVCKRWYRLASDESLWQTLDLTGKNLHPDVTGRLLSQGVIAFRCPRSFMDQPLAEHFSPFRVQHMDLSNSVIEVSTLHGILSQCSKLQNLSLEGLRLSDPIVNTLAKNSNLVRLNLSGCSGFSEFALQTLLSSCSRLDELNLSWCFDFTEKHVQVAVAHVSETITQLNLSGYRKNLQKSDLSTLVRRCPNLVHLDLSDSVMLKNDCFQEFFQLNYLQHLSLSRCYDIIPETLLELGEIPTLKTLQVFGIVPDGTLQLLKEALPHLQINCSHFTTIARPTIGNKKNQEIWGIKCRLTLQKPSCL
UniProt Q13616: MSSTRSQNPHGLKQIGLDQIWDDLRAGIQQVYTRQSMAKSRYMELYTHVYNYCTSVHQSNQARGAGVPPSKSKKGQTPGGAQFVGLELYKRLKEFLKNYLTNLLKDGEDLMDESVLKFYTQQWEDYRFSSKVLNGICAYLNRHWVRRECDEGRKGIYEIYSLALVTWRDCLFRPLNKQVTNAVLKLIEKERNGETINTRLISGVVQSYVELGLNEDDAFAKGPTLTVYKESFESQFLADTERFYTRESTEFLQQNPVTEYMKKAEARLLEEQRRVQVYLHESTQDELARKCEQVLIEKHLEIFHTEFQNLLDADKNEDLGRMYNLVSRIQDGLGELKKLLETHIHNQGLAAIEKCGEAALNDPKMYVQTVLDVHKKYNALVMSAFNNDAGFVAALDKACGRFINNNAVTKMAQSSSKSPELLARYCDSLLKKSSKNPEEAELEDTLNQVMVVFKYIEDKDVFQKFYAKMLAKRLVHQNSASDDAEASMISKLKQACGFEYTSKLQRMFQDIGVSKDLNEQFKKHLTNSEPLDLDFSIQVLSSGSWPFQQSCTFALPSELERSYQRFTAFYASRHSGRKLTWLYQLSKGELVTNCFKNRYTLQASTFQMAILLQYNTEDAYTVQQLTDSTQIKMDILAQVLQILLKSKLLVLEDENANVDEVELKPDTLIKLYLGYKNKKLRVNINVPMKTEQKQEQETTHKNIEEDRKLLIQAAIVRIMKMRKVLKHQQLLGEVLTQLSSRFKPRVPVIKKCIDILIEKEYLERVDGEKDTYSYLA

Where two headings read alike, the source gives them in different places. No constants are given. Whether binding was seen depends on the method and setting. In cells and extracts the contact can be indirect. Some results given as binding are weak or reduced against the parent protein; the word gives no strength. For some assays here: Where a sequence is shown, tags or fusion partners need not be part of it.

Common to all, as to assay: co-IP
Experiment [1] deals with T1, FBXO2, endogenous (human (endogenous in HEK293, Hep3B, HCC-LM3)) (UniProt Q9UK22).
T1 sequence: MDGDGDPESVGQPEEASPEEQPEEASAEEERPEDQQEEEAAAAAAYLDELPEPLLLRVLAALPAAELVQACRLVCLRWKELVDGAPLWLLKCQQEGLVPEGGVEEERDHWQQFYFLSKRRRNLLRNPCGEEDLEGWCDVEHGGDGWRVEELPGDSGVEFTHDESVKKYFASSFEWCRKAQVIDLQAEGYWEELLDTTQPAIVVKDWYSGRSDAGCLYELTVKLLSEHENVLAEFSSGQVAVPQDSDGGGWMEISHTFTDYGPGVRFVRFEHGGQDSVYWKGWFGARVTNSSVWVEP

Experiment [2] addresses Flag-tagged SKP2 (UniProt Q13309).
In experiment [3] the target is T2, Flag-tagged Hsp47 (human) (UniProt P50454).
T2 sequence: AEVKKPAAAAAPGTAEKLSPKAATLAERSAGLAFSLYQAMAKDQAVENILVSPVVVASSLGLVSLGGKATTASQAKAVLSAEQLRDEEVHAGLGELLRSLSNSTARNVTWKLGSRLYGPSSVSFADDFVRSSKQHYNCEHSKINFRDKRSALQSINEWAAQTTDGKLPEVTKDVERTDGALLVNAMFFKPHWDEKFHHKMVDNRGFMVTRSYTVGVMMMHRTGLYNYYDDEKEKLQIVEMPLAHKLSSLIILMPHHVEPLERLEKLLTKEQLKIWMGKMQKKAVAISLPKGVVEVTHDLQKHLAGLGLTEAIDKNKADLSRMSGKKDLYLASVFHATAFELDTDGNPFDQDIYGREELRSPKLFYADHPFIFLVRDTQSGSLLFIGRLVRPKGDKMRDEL

Experiment [4] addresses T1, FBXO2, endogenous (human (endogenous in HEK293, Hep3B, HCC-LM3)). This is another data set of the same source.
Experiment [5] concerns the target T3, Flag-tagged FBXO2 (wild type) (human) (UniProt Q9UK22).
T3 sequence: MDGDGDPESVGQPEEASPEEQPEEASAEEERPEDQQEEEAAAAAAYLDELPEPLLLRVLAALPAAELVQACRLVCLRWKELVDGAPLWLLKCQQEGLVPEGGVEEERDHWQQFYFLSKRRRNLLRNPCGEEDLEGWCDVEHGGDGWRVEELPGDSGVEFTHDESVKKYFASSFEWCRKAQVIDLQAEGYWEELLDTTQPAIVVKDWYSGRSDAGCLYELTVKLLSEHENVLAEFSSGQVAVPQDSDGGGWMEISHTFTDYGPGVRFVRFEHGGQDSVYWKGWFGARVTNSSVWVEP

Experiment [6] addresses T4, Flag-FBXO2 Y278A (human) (UniProt Q9UK22).
T4 sequence: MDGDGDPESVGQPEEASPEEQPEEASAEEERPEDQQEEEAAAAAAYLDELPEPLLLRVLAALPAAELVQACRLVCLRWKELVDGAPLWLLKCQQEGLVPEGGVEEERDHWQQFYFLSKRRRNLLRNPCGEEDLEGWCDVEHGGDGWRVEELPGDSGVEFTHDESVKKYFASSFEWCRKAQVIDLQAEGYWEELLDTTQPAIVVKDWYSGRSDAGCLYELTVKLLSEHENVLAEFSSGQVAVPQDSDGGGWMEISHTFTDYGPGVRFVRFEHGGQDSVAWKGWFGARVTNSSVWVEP

Experiment [7] addresses Flag-CUL1 (UniProt Q13616).
Experiment [8] concerns the target T5, Flag-FBXO2 W279A (human) (UniProt Q9UK22).
T5 sequence: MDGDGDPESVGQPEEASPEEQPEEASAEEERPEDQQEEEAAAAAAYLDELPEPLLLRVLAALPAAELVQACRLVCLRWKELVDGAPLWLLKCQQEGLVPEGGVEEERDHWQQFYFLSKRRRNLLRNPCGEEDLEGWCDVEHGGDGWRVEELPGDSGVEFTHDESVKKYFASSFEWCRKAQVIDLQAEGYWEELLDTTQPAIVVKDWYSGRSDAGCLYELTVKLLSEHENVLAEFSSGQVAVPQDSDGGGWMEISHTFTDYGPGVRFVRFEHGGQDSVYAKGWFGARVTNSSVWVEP

Consider “EGFR, endogenous (from UniProt P00533 25-1210) (receptor)”, for which the binding result in experiment [1] was “no binding”.

B1: FBXO2, endogenous (protein, UniProt Q9UK22 1-296)
chain: MDGDGDPESVGQPEEASPEEQPEEASAEEERPEDQQEEEAAAAAAYLDELPEPLLLRVLAALPAAELVQACRLVCLRWKELVDGAPLWLLKCQQEGLVPEGGVEEERDHWQQFYFLSKRRRNLLRNPCGEEDLEGWCDVEHGGDGWRVEELPGDSGVEFTHDESVKKYFASSFEWCRKAQVIDLQAEGYWEELLDTTQPAIVVKDWYSGRSDAGCLYELTVKLLSEHENVLAEFSSGQVAVPQDSDGGGWMEISHTFTDYGPGVRFVRFEHGGQDSVYWKGWFGARVTNSSVWVEP
With B1, the binding entry in experiment [2] and in experiment [3] was “binds” in each case.

B2: heat shock protein 47 (Hsp47), endogenous (protein, UniProt P50454 19-418)
chain: AEVKKPAAAAAPGTAEKLSPKAATLAERSAGLAFSLYQAMAKDQAVENILVSPVVVASSLGLVSLGGKATTASQAKAVLSAEQLRDEEVHAGLGELLRSLSNSTARNVTWKLGSRLYGPSSVSFADDFVRSSKQHYNCEHSKINFRDKRSALQSINEWAAQTTDGKLPEVTKDVERTDGALLVNAMFFKPHWDEKFHHKMVDNRGFMVTRSYTVGVMMMHRTGLYNYYDDEKEKLQIVEMPLAHKLSSLIILMPHHVEPLERLEKLLTKEQLKIWMGKMQKKAVAISLPKGVVEVTHDLQKHLAGLGLTEAIDKNKADLSRMSGKKDLYLASVFHATAFELDTDGNPFDQDIYGREELRSPKLFYADHPFIFLVRDTQSGSLLFIGRLVRPKGDKMRDEL
As for B2, the binding entry is “binds” in experiment [4]; “binds” in experiment [5]; “no binding” in experiment [6]; “binds” in experiment [7]; “no binding” in experiment [8].
